PubChem BioAssay AID652243, Drosophila RNAi Screening Center – 2013
The deposit covers about 24,000 reagents; shown is an unselected part of those that have a named target and a result. In the full data, 246 (1%) got an active call. 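Plates not normalised; calls are printed but the firefly/Renilla ratio behind them is not deposited; fold cut for lowering reported inconsistently.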 Raw values are not corrected between plates. Not given: the amount of reagent.

- Screen: 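Fly regulators of androgen-dependent reporter output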 (primary screen)
- Cells: Drosophila S2R+ cells
- Knock-down reagent: long dsRNA against Drosophila genes
- Time to read-out: 72 h (48 h, then 24 h hormone)
- Challenge: synthetic androgen R1881 at 10 nM for 24 h
- Read-out: 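Firefly light from an androgen-responsive reporter and Renilla control light per well, raw and unnormalised, for each of two replicates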
- Reading the numbers: firefly reporter light: higher = more light from androgen-responsive reporter; Renilla control light: higher = more constitutive control signal (cell number, transfection)
- Hit rule: 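Across duplicate plates, a knock-down whose log firefly/Renilla ratio shifted a set fold down or up from the GFP/LacZ control mean was a hit; the downward cut appears as both 1.5 and 3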
- Meaning of the calls: active = hit: reporter lowered or raised; inactive = no hit

| Gene | dsRNA | firefly reporter light, replicate 1 | firefly reporter light, replicate 2 | Renilla control light, replicate 1 | Renilla control light, replicate 2 | Call |
| --- | --- | --- | --- | --- | --- | --- |
| CG32645 | DRSC19683 | 5.93e5 | 6.10e5 | 3.34e6 | 3.50e6 | inactive |
| CG32645 | DRSC19889 | 6.80e5 | 5.45e5 | 3.82e6 | 4.11e6 | inactive |
| CG11694 | DRSC14354 | 1.08e5 | 1.86e5 | 1.91e6 | 1.91e6 | inactive |
| CG11694 | DRSC24061 | 1.19e6 | 9.04e5 | 9.25e5 | 7.92e5 | inactive |
| CG11694 | DRSC39064 | 4.83e5 | 4.17e5 | 1.49e6 | 1.60e6 | inactive |
| CG11262 | DRSC09831 | 3.34e5 | 1.36e5 | 2.28e6 | 1.26e6 | inactive |
| Ciao1 | DRSC06170 | 1.19e6 | 1.35e6 | 1.93e6 | 1.95e6 | inactive |
| Mgat2 | DRSC16347 | 79779 | 61067 | 7.81e5 | 6.13e5 | inactive |
| Mgat2 | DRSC29105 | 6.64e5 | 4.22e5 | 1.36e6 | 9.28e5 | inactive |
| pHCl-1 (pH-sensitive chloride channel 1) | DRSC09888 | 1.33e5 | 1.33e5 | 1.69e6 | 1.48e6 | inactive |
| pHCl-1 (pH-sensitive chloride channel 1) | DRSC09991 | 93639 | 77597 | 1.44e6 | 1.79e6 | inactive |
| pHCl-1 (pH-sensitive chloride channel 1) | DRSC10589 | 3.49e5 | 3.50e5 | 2.65e6 | 1.80e6 | inactive |
| pHCl-1 (pH-sensitive chloride channel 1) | DRSC29802 | 4.33e5 | 4.70e5 | 1.36e6 | 1.91e6 | inactive |
| CG1441 | DRSC06448 | 6.93e5 | 5.16e5 | 2.43e6 | 1.89e6 | inactive |
| CG1441 | DRSC27028 | 3.16e5 | 3.95e5 | 6.72e5 | 5.75e5 | inactive |
| KLHL18 (Kelch like family member 18) | DRSC15496 | 59582 | 49714 | 4.17e5 | 4.98e5 | inactive |
| KLHL18 (Kelch like family member 18) | DRSC26629 | 2.51e5 | 2.71e5 | 5.56e5 | 4.91e5 | inactive |
| Hsc70-1 (Heat shock protein 70 cognate 1) | DRSC11185 | 2.80e5 | 1.58e5 | 9.17e5 | 8.34e5 | inactive |
| Hsc70-1 (Heat shock protein 70 cognate 1) | DRSC25201 | 5.67e5 | 2.63e5 | 5.29e5 | 5.76e5 | inactive |
| asf1 (anti-silencing factor 1) | DRSC11324 | 88080 | 72756 | 3.51e5 | 3.31e5 | inactive |
| asf1 (anti-silencing factor 1) | DRSC24067 | 1.38e6 | 2.05e6 | 8.92e5 | 9.08e5 | inactive |
| baf (barrier to autointegration factor) | DRSC03051 | 1.16e5 | 1.19e5 | 1.86e6 | 1.72e6 | inactive |
| baf (barrier to autointegration factor) | DRSC26974 | 3.98e5 | 3.85e5 | 5.05e5 | 3.51e5 | inactive |
| betaNACtes1 (Nascent-associated complex beta-subunit-like, testis 1) | DRSC19534 | 5.12e5 | 4.69e5 | 3.47e6 | 4.14e6 | inactive |
| betaNACtes1 (Nascent-associated complex beta-subunit-like, testis 1) | DRSC26176 | 2.57e5 | 2.82e5 | 7.98e5 | 6.69e5 | inactive |
